The assay deals with METTL9-FLAG wild type (mouse) (mouse) (UniProt Q9EPL4). The assay is described as follows: affinity purification with mass spectrometry.

Sequences of proteins named here, by UniProt entry; tags and fusion partners are left off. Residues count along the entry.
UniProt Q9EPL4, residues 19-318: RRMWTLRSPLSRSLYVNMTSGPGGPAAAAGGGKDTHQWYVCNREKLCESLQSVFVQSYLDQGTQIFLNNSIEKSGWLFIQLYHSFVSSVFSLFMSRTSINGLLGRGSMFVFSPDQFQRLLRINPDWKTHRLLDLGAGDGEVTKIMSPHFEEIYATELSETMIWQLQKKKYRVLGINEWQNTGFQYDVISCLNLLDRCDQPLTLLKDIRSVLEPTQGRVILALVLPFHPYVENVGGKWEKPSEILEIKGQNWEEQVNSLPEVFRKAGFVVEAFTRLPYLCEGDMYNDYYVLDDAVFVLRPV
UniProt P27824, residues 21-592: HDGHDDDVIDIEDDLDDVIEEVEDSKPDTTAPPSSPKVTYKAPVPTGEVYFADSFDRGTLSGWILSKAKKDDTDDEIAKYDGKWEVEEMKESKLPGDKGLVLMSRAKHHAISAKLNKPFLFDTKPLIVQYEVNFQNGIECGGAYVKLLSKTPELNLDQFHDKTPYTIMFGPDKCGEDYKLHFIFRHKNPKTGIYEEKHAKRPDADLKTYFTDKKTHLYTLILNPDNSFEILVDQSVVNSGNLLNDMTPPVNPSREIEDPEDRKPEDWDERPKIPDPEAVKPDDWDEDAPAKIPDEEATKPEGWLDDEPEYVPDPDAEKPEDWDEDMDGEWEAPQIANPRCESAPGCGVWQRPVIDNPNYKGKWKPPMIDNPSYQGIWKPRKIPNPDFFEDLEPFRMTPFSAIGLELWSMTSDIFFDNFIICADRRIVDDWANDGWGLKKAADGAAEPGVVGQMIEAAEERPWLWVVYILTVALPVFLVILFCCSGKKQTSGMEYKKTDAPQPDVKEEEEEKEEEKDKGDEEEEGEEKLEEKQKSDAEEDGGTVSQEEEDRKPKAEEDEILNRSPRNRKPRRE

No constants are given. Whether binding was seen depends on the method and setting. In cells and extracts the contact can be indirect. These calls come from enrichment with a bait or labelling near it, and not all partners need be listed.

With calnexin (from UniProt P27824 21-592), the binding result is “binds”.

Values taken from doi:10.64898/2025.12.23.696137.
